Experimental findings from paper doi:10.1101/2024.09.04.610270 are described below.

The chains are these.
T1: RS2Z32mutRRM (Arabidopsis thaliana) (UniProt Q9FYB7)
T1 sequence: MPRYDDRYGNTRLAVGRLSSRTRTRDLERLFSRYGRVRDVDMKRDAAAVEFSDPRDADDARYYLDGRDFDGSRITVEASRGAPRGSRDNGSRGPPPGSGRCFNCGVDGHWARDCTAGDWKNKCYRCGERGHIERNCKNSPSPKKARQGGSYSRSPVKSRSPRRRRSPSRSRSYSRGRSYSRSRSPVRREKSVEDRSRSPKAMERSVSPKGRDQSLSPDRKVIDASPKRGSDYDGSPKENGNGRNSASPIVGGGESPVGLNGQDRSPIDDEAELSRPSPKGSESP

T2: arginine/serine-rich zinc knuckle-containing protein 33 (RS2Z33), native full-length, yeast two-hybrid bait (Arabidopsis thaliana) (UniProt Q8VYA5)
T2 sequence: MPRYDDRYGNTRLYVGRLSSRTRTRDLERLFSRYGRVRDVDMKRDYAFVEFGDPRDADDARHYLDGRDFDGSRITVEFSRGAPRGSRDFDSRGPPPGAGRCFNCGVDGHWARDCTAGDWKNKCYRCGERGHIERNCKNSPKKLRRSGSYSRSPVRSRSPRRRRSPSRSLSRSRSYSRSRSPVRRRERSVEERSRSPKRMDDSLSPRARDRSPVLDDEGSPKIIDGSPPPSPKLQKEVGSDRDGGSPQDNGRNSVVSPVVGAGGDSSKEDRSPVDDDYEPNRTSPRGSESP

T3: arginine/serine-rich zinc knuckle-containing protein 32 (RS2Z32), native full-length, yeast two-hybrid bait (Arabidopsis thaliana) (UniProt Q9FYB7)
T3 sequence: T1 sequence with A14Y, A46Y, A48F

T4: RS2Z33mutRRM (Arabidopsis thaliana) (UniProt Q8VYA5)
T4 sequence: T2 sequence with Y14A, Y46A, F48A

B1: Cyp59 (protein, UniProt Q6Q151 1-506)
chain: MSVLIVTSLGDIVIDLHSDKCPLTCKNFLKLCKIKYYNGCLFHTVQKDFTAQTGDPTGTGAGGDSIYKFLYGEQARFYKDEIHLDLKHSKTGTVAMASGGENLNASQFYFTLRDDLDYLDGKHTVFGQIAEGFDTLTRINEAYVDPKNRPYKNIRIKHTHILDDPFDDPPQLAEMMPDASPEGKPKEEVKDDVRLEDDWVPMDEELGAQELEEVIREKAAHSSAVVLESIGDIPEAEVKPPDNVLFVCKLNPVTEDEDLHTIFSRFGTVVSADVIRDFKTGDSLCYAFIEFENKESCEQAYFKMDNALIDDRRIHVDFSQSVSKLWSQFRQKDSQKGKGNGCFKCGSTDHIAKDCVGGPSSKFIVKDQNRQHGGGEGYEMVFEGDVHETPKHNSHERERSEKIQRRSPHGNGEGKRQHRDERDDGRRQHDREDARELERKHRERKERESREDEDRRRRRRREESRDKESRRERDEDDHRSHRDYKERRRERDDRHGREARHERRDR
B2: GRP8 (protein, UniProt Q03251 1-169)
chain: MSEVEYRCFVGGLAWATNDEDLQRTFSQFGDVIDSKIINDRESGRSRGFGFVTFKDEKAMRDAIEEMNGKELDGRVITVNEAQSRGSGGGGGGRGGSGGGYRSGGGGGYSGGGGGGYSGGGGGGYERRSGGYGSGGGGGGRGYGGGGRREGGGYGGGDGGSYGGGGGGW
B3: Y14 (protein, UniProt F4I9J7 1-202)
chain: MANIESEAVDFEPEEDDLMDEEGTAIDGADVSPRAGHPRLKSAIAGANGESAKKTKGRGFREEKDSDRQRRLSSRDFESLGSDGRPGPQRSVEGWIILVSGVHEETQEEDITNAFGDFGEIKNLNLNLDRRSGYVKGYALIEYEKKEEAQSAISAMNGAELLTQNVSVDWAFSSGPSGGESYRRKNSRYGRSQRSRSPRRRY
B4: MAGO (protein, UniProt O23676 1-150)
chain: MAAEEATEFYLRYYVGHKGKFGHEFLEFEFREDGKLRYANNSNYKNDTIIRKEVFLTPAVLKECKRIVSESEILKEDDNNWPEPDRVGKQELEIVLGNEHISFATSKIGSLVDCQSSNDPEGLRIFYYLVQDLKCLVFSLISLHFKIKPI
B5: Cyp71 (protein, UniProt Q8W4D0 1-631)
chain: MEEESKNGGTTIPTEELAVVAVPPVVEEEEPMVGPGPAPRGKRKRPLQFEQAYLDSLPSANMYEKSYMHRDVVTHVAVSAAEFFISGSMDGHLKFWKKKGVGIEFAKHFRSHLGPIEGLAVSIDGLLCCTISNDHAVKIYDVVNYDMMAMIRLPYIPGAVEWVYKQGDVKAKLAVSDRDSLFVHIYDPRSGSNEPIASKEIHMNPIKVMKYNPVSDTMISGDTKGIIEYWSATTLQFPEDEVNFKLKSDTNLFEIIKCKTTISAIEVSPDGKQFSITAPDRRIRVFWFRTGKLRRVYDESLVVAQDLQRSDAPLYRLEAIDFGRRMAVEKELEKTESAPQPNAVFDESSNFLIYATFLGIKVINLHTNTVARILGKVESNERYLRVALYQGDQGGKKVRKIPAAAANVNESKEPLTDPTILCCAFKKHRIYMFSRREPEEPEDASQGRDVFNEKPAADELMSVSDIGNSATTSLPENVIMHTTLGDIHMKLYPEECPKTVENFTTHCRNGYYDNHLFHRVIRGFMIQTGDPLGDGTGGQSIWGREFEDEFHKSLRHDRPFTLSMANAGPNTNGSQFFITTVATPWLDNKHTVFGRVVKGMDVVQGIEKVKTDKNDRPYQDVKILNVTVPKS
B6: MOS12 (protein, UniProt Q8RWV3 1-416)
chain: MIYTAIDNFYLSDEQLKASPSRKDGIDETTEISLRIYGCDLIQEGGILLKLPQAVMATGQVLFQRFYCKKSLAKFDVKIVAASCVWLASKLEENPKKARQVIIVFHRMECRRENLPLEHLDMYAKKFSELKVELSRTERHILKEMGFVCHVEHPHKFISNYLATLETPPELRQEAWNLANDSLRTTLCVRFRSEVVACGVVYAAARRFQVPLPENPPWWKAFDADKSSIDEVCRVLAHLYSLPKAQYISVCKDGKPFTFSSRSGNSQGQSATKDLLPGAGEAVDTKCTAGSANNDLKDGMVTTPHEKATDSKKSGTESNSQPIVGDSSYERSKVGDRERESDREKERGRERDRGRSHRGRDSDRDSDRERDKLKDRSHHRSRDRLKDSGGHSDKSRHHSSRDRDYRDSSKDRRRHH
B7: GRP7 (protein, UniProt Q03250 1-176)
chain: MASGDVEYRCFVGGLAWATDDRALETAFAQYGDVIDSKIINDRETGRSRGFGFVTFKDEKAMKDAIEGMNGQDLDGRSITVNEAQSRGSGGGGGHRGGGGGGYRSGGGGGYSGGGGSYGGGGGRREGGGGYSGGGGGYSSRGGGGGSYGGGRREGGGGYGGGEGGGYGGSGGGGGW
B8: RZ-1C (protein, UniProt Q8RWN5 1-310)
chain: MAAKEGSRIFVGGLSPEVTDRDLERAFSRFGDILDCQIMLERDTGRSRGFGFITFADRRAMDESIREMHGRDFGDRVISVNRAEPKLGRDDGESHGSRGGRDSGYSIAGKGSFGGGGGGGGRVGEDECFKCGRVGHWARDCPSAGGGRGGPVGGFSSRASAYGGSDGRVDRYADRDRYVDRERYIDDRYDGAARYGARDRFDSREAYIPRDRYASDRYAAPADRFAGGDRYSRGSDRYPPGSYDKARSFERDIAPSAGSDRYGGGRAGGPIRGGGEEGRGFRSRAGAPYERPSRSGGGGAYPSSSTFDRY
B9: RZ-1B (protein, UniProt O22703 1-292)
chain: MKDRENDGNLESRIFVGGLSWDVTERQLESTFDRYGKITECQIMVGRDTGRPRGFGFITFTDRRGADDAIKHMHGRELGNKVISVNKAEPKVGGEDVDQLKKGGGYSSRGKGTEDECFKCRRPGHWARDCPSTGDDRERFRVPLAMRSRIGDIDGHRDRYGDRDLEREREREREFDRYMDGRRDRDGGRYSYRDRFDSGDKYEPRDHYPFERYAPPGDRFVSDRYGMPEHHLENEYRGRERSYDRDRYARDTSDRYGDMGPIRDEGRPYRSRPGPYDRPSRPGGRPSSYERW
B10: ALY4 (protein, UniProt Q6NQ72 1-288)
chain: MSGALNMTLDEIVKRGKTARSGGRGISRGRGRGRGGGGRGAGPARRGPLAVNARPSSFTINKPVRRVRSLPWQSGLFEDGLRAAGASGVEVGTRLHVTNLDQGVTNEDIRELFSEIGEVERYAIHYDKNGRPSGTAEVVYPRRSDAFQALKKYNNVLLDGRPMRLEILGGNNSSEAPLSGRVNVNVTGLNGRLKRTVVIQQGGGGRGRVRGGRGGRGPAPTVSRRLPIHNQQGGGMRGGRGGFRARGRGNGGRGRGGGRGNGKKPVEKSAADLDKDLESYHADAMNTS
B11: PRP38 (protein, UniProt Q8LB54 1-355)
chain: MANRTDPLAKNIRGTNPQNLVEKIVRTKIYQHTFWKEQCFGLTAETLVDKAMELDHLGGTFGGSRKPTPFLCLILKMLQIQPEKEIVVEFIKNDDYKYVRILGAFYLRLTGTDVDVYRYLEPLYNDYRKVRQKLSDGKFSLTHVDEVIEELLTKDYSCDIAMPRLKKRWTLEQNGLLEPRKSVLEDDFEEEEEKEENEGIADGSEDEMDQRRKSPERERERDRDRRRDSHRHRDRDYDRDYDMDRDHDRDYERERGHGRDRDRERDRDHYRERDRDRERGRDRERDRRDRARRRSRSRSRDRKRHETDDVRDREEPKKKKEKKEKMKEDGTDHPNPEIAEMNRLRASLGMKPLRD

Where a chain is given by its changes, count along the chain named. Results are given in words; binding and its absence hold for the method and conditions named. Some results given as binding are weak or reduced against the parent protein; the word gives no strength.

One assay concerns the target T1, RS2Z32mutRRM (Arabidopsis thaliana). Nature of the assay: two-hybrid.
For B1, the binding entry is “no binding”.

The target in another assay is T2, arginine/serine-rich zinc knuckle-containing protein 33 (RS2Z33), native full-length, yeast two-hybrid bait (Arabidopsis thaliana). Briefly: two-hybrid.
With B2, the binding entry is reported as “no binding”.
As for B3, the binding result is given as “no binding”.
The same measure, in the same setting: the entry for B4 is “no binding”; for B5 it is “no binding”; for B6 it is “no binding”.
Regarding B7, the binding entry was “no binding”.
On the same count and under the same terms, the entry for B8 is “no binding”; for B9 it is “no binding”; for B10 it is “no binding”.
Still for that read-out and setting: as for B11, the entry is “no binding”; as for B1, “binds”.

Another assay deals with T3, arginine/serine-rich zinc knuckle-containing protein 32 (RS2Z32), native full-length, yeast two-hybrid bait (Arabidopsis thaliana). Briefly: two-hybrid.
With B2, the binding result is recorded as “no binding”.
As to B3, the binding result is listed as “no binding”.
Still for that read-out and setting: the entry for B4 is “no binding”.
The same measure, in the same setting: as for B5, the entry is “no binding”.
The same measure, in the same setting: the entry for B6 is “no binding”; for B7 it is “no binding”.
In the case of B8, the binding result is “no binding”.
B9: the binding result is “no binding”.
Turning to B10, the binding result is given as “no binding”.
For the molecule B11, the binding result is on record as “no binding”.
With B1, the binding result is “binds”.

The next assay concerns the target T4, RS2Z33mutRRM (Arabidopsis thaliana). Nature of the assay: two-hybrid.
Take B1: the binding result is “no binding”.
